In article PMC4355975 one finds binding data, which are given here for one molecule.

Protein sequences, listed by entry. Tags and fused reporters are not part of them. Residues count along the entry.
UniProt P12023, residues 18-770: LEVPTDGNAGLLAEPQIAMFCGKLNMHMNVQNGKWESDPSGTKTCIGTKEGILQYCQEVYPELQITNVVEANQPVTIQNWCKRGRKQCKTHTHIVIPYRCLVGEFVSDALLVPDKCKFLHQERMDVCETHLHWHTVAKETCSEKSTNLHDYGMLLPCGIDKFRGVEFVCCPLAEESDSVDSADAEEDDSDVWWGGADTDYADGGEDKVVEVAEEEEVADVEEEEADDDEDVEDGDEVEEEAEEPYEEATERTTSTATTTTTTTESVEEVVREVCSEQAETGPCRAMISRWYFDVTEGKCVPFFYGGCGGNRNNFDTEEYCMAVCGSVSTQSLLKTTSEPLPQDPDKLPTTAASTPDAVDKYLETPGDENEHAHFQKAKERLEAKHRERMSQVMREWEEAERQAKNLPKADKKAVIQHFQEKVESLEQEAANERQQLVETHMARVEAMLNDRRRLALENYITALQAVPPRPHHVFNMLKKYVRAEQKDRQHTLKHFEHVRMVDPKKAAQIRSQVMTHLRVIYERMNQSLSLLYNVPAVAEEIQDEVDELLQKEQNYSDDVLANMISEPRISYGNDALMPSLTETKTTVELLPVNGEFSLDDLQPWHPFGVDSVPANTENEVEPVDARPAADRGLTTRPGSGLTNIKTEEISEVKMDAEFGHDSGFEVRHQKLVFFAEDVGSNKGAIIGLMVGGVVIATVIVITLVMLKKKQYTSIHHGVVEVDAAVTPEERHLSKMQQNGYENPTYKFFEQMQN

For assay [1], the target named is Amyloid Precursor Protein (APP) (mouse (endogenous in primary cortical neurons)) (UniProt P12023). Put plainly: co-IP; after cell surface biotinylation of mouse primary cortical neurons at 6 DIV (Cell surface Co-IP); APP precipitated with anti-APP Cter polyclonal antibody; blots for APP and PAT1.
Assay [2] has the same target. Kind of assay: co-IP; total extracts of mouse primary cortical neurons at 6 DIV; APP precipitated with anti-APP Cter polyclonal antibody and protein A Sepharose; IP buffer Hepes 10 mM, NaCl 150 mM, CaCl2 2 mM, 1% Triton X 100, 4°C; blots for APP and PAT1.

No constants are given. Whether binding was seen depends on the method and setting. In cells and extracts the contact can be indirect. Some entries that bind do so weakly or less than the wild type.

B1: PAT1 (Protein interacting with APP tail 1) (protein, UniProt Q9DAX9 1-585)
chain: MAAVELEWIPETLYNTAISAVVDNYIRSRRDIRSLPENIQFDVYYKLYQQGRLCQLGSEFCELEVFAKVLRALDKRHLLHHCFQALMDHGVKVASVLAYSFSRRCSYIAESDAAVKEKAIQVGFVLGGFLSDAGWYSDAEKVFLSCLQLCTLHDEMLHWFRAVECCVRLLHVRNGNCKYHLGEETFKLAQTYMDKLSKHGQQANRAALYGELCALLFAKSHYDEAYKWCVEAMKEITAGLPVKVVVDVLRQASKACVVKREFKKAEQLIKHAVYLARDHFGSKHPKYSDTLLDYGFYLLNVDNICQSVAIYQAALDIRQSVFGGKNIHVATAHEDLAYSSYVHQYSSGKFDNALFHAERAIGIITHILPEDHLLLASSKRVKALILEEIAIDCHNKETEQRLLQEAHDLHLSSLQLAKKAFGEFNVQTAKHYGNLGRLYQSMRKFKEAEEMHIKAIQIKEQLLGQEDYEVALSVGHLASLYNYDMNQYENAEKLYLRSIAIGKKLFGEGYSGLEYDYRGLIKLYNSIGNYEKVFEYHNVLSNWNRLRDRQYSVTDALEDVSSSPQSTEEVVQSFLMAQNVEGPSC
As for B1, the binding result in assay [1] is “binds weakly”; in assay [2] it was “binds”.
